Results on 22 sequences are retold here after PMC5785343.

Series [1] deals with GST-MabHLH6-C. Description: competition with a labelled probe. The conditions noted are these: EMSA, LightShift Chemiluminescent EMSA kit (Thermo) per manufacturer, pH and temperature not stated, native PAGE, recombinant protein, protein details: GST (N-terminal, pGEX-4T-1).
Series [2] has as its system GST-MabHLH6-C. Description: EMSA. The conditions noted are these: LightShift Chemiluminescent EMSA kit (Thermo) per manufacturer; pH and temperature not stated; native PAGE; recombinant protein; protein details: GST (N-terminal, pGEX-4T-1); label: biotin 5' (text, 3' end labeling kit named).

Construct, isoform or probe ends are uncertain for at least one entry. For some of these results: Negatives hold for the conditions tested.

In the case of “CGAAACGACCACCTTTCTTCGTTATCGGTATTCCACGGGTCGTTGTCTTCCTCCTTGG / CCAAGGAGGAAGACAACGACCCGTGGAATACCGGTAACGAAGAAAGGTGGTCGTTTCG [MaISA2 mprobe]”, the binding result in series [1] (labelled N9) is on record as “no binding”.
On to “TTGGTCACGTTATGTTGTGATATTTAACGAAACCAGTAGATTGAGATCACACCGACGGG (double strand) [MapGlcT2-2 mprobe]”, for which, in series [1] (labelled N11), the binding result is “no binding”.
Turning to “TACGTTGCACACGTGATTAGAACTGGTAGGGGGTCCCAATTAACCAGTACAGGTCCTA (double strand) [MaAMY3 mprobe]”, the binding result in series [1] (labelled N7) is on record as “no binding”.
“CGGCGCGCTATCATCCATGCCATCTGCGTTACCACACGTGTCGCTGCCGGAGCCGTCGG (double strand) [MaBAM1 probe]”: the binding result in series [2] was “binds”.
Still for that read-out and setting: in the case of “TCTAATCACATGATGGTGTGTGGCCGCCATCATTCTCTCCCAAGCAACCACGTGTAAAC (double strand) [MaGWD1 probe]” it was “binds”.
In the case of “TCAAAATATATGGTTATATTTACTTCACAAATGATATTGTTTGGGACAACATACTCTCT (double strand) [MaBAM10 probe]”, the binding result in series [2] was “binds”.
Still for that read-out and setting: the entry for “TACGTTGCCAACTGGATTAGACATGTGAGGGGGTCCCAATTACACATGACAGGTCCTA (double strand) [MaAMY3 probe]” is “binds”; for “GACCAATGTAAACGCTGTATGGCGAGTGCCACGTGGATTTTTTAAATTAACCAATAAAA (double strand) [MaBAM8 probe]” it is “binds”.
Take “GACCAATGTAAACGCTGTATGGCGAGTGCACCGGTGATTTTTTAAATTAACCAATAAAA (double strand) [MaBAM8 mprobe]”: the binding result in series [1] (labelled N5) was “no binding”.
On to “TCAAAATATATGGTTATATTTACTTCAACAAGTATATTGTTTGGGACAACATACTCTCT (double strand) [MaBAM10 mprobe]”, for which the binding result in series [1] (labelled N6) is listed as “no binding”.
As for “TCTAATACCAGTATGGTGTGTGGCCGCCATCATTCTCTCCCAAGCAACACCGGTTAAAC (double strand) [MaGWD1 mprobe]”, the binding result in series [1] (labelled N1) is given as “no binding”.
For the sequence “GCAAATATCACGTGCGGGTTAAGCCCGAAATATTAGAACTCGACGACATGTGCTCCAGA (double strand) [MaLSF2 probe]”, the binding result in series [2] is “binds”.
Consider “TTAGGAAAGTGATAACATGTAGACCGGTCTTGGACCGGTGGAGGAGTGGGACCCACGGA (double strand) [MaISA3 mprobe]”, for which, in series [1] (labelled N10), the binding result was “no binding”.
As for “ATCGTCCGACAAGTTTGAGGTACGACTGCCATTACTGCAGCCTCACTTGTAGCCTTCC (double strand) [MaAMY3C mprobe]”, the binding result in series [1] (labelled N8) is listed as “no binding”.
For “CGGCGCGCTATCATCCATGCACTCGTCGTTACCAACCGGTTCGCTGCCGGAGCCGTCGG (double strand) [MaBAM1 mprobe]”, in series [1] (labelled N3), the binding result is on record as “no binding”.
As to “GCCACCGGATGCAAGTGGGGTGGCATTGCCGATCTTGGTTTTCCATTTGGATGGCGCTG (double strand) [MaBAM2 probe]”, in series [2], the binding result is “binds”.
For the sequence “CGAAACGACCACCTTTCTTCGTTCACGTGATTCCCAGGTGCGTTGTCTTCCTCCTTGG (double strand) [MaISA2 probe]”, the binding result in series [2] is given as “binds”.
On to “GCAAATATACCGGTCGGGTTAAGCCCGAAATATTAGAACTCGACGAACTGGTCTCCAGA / TCTGGAGACCATGTCGTCGAGTTCTAATATTTCGGGCTTAACCCGACCGGTATATTTGC [MaLSF2 mprobe]”, for which the binding result in series [1] (labelled N2) is on record as “no binding”.
For “TTGGTCACGTTATGTTGTGATATTTAACGAACACATGAGATTGAGATCACACCGACGGG (double strand) [MapGlcT2-2 probe]”, the binding result in series [2] is given as “binds”.
Still for that read-out and setting: in the case of “ATCGTCCGCAAATGTTGAGGTACGACTGCCATTACTGCAGCCTCCATTTGAGCCTTCC (double strand) [MaAMY3C probe]” it was “binds”.
On to “GCCACCGGATGACAGGTGGGTGGCATTGCCGATCTTGGTTTTCACTTGTGATGGCGCTG (double strand) [MaBAM2 mprobe]”, for which the binding result in series [1] (labelled N4) was “no binding”.
Turning to “TTAGGAAAGTGATAACCTGTAGCACGTGCTTGGCACGTGGGAGGAGTGGGACCCACGGA / TCCGTGGGTCCCACTCCTCCCACGTGCCAAGCACGTGCTACATGTTATCACTTTCCTAA [MaISA3 probe]”, the binding result in series [2] is recorded as “binds”.
